Measured values reported in ChEMBL document CHEMBL1133105, “Antimalarial, antitrypanosomal, and antileishmanial activities and cytotoxicity of bis(9-amino-6-chloro-2-methoxyacridines): influence of the linker” (J Med Chem, 2000).

Test system: Trypanosoma cruzi
Assay: In Vitro inhibition concentration against Trypomastigote form of Trypanosoma cruzi
Type: functional, organism-based

IC50: 3.13 µM
SMILES: O=C(Cn1ccnc1[N+](=O)[O-])NCc1ccccc1 [BENZNIDAZOLE]
